Patent US20150141470A1, “DIAGNOSTIC AND TREATMENT METHODS IN PATIENTS HAVING OR AT RISK OF DEVELOPING RESISTANCE TO CANCER THERAPY” (The Broad Institute, Inc., priority 2012, published 2015)

Tested on: WM266.4
Experiment: Single-dose cell viability of forskolin-treated cells with MAPK-pathway and HDAC inhibitors
Type: cell-based
Details: sub-lethal doses; Panobinostat 10 nM, Vorinostat 1.5 μM, Entinostat 1.5 μM; 96 hrs
Protocol: Melanoma cell lines were seeded into 384-well, white-walled, clear bottom plates at the following densities; A375, 500 cells/well; SKMEL19, 1500 cells/well; SKMEL28, 1000 cells/well; UACC62, 1000 cells/well; WM266.4, 1800 cells/well; G361, 1200 cells/well, COLO-679, 2000 cells/well; SKMEL5, 2000 cells/well). Twenty-four hours after seeding, serial dilutions of the relevant compound were prepared in DMSO to 1000× stocks. Drug stocks were then diluted 1:100 into appropriate growth media and added to cells at a dilution of 1:10 (lx final), yielding drug concentrations ranging from 100 μM to 1×10-5 μM, with the final volume of DMSO not exceeding 1%. When indicated, forskolin (10 μM), IBMX (100 μM), dbcAMP (100 μM) were added concurrent with MAPK-pathway inhibitors. Cells were incubated for 96 h following addition of drug. Cell viability was measured using CellTiterGlo viability assay (Promega). Viability was calculated as a percentage of control (DMSO treated cells). A minimum of six replicates were performed for each cell line and drug combination. Data from growth-inhibition assays were modeled using a nonlinear regression curve fit with a sigmoid dose-response. […] Sigmoid-response curves that crossed the 50% inhibition point at or above 1.0 μM or 10.0 μM have GI50 values annotated as >1.0 μM or >10.0 μM, respectively. […]

O=C(CCCCCCC(=O)Nc1ccccc1)NO [Vorinostat]
sensitivity of forskolin-treated cells to MAPK-pathway inhibitors: restored sensitivity to MAPK-pathway inhibitors to levels approaching parental cells
